The list shows a part of the results.

Protein sequences, listed by entry. Tags and fused reporters are not part of them. Lines headed by an entry give the natural chain unless they say otherwise; changes in a name come on top.
UniProt Q5TAX3: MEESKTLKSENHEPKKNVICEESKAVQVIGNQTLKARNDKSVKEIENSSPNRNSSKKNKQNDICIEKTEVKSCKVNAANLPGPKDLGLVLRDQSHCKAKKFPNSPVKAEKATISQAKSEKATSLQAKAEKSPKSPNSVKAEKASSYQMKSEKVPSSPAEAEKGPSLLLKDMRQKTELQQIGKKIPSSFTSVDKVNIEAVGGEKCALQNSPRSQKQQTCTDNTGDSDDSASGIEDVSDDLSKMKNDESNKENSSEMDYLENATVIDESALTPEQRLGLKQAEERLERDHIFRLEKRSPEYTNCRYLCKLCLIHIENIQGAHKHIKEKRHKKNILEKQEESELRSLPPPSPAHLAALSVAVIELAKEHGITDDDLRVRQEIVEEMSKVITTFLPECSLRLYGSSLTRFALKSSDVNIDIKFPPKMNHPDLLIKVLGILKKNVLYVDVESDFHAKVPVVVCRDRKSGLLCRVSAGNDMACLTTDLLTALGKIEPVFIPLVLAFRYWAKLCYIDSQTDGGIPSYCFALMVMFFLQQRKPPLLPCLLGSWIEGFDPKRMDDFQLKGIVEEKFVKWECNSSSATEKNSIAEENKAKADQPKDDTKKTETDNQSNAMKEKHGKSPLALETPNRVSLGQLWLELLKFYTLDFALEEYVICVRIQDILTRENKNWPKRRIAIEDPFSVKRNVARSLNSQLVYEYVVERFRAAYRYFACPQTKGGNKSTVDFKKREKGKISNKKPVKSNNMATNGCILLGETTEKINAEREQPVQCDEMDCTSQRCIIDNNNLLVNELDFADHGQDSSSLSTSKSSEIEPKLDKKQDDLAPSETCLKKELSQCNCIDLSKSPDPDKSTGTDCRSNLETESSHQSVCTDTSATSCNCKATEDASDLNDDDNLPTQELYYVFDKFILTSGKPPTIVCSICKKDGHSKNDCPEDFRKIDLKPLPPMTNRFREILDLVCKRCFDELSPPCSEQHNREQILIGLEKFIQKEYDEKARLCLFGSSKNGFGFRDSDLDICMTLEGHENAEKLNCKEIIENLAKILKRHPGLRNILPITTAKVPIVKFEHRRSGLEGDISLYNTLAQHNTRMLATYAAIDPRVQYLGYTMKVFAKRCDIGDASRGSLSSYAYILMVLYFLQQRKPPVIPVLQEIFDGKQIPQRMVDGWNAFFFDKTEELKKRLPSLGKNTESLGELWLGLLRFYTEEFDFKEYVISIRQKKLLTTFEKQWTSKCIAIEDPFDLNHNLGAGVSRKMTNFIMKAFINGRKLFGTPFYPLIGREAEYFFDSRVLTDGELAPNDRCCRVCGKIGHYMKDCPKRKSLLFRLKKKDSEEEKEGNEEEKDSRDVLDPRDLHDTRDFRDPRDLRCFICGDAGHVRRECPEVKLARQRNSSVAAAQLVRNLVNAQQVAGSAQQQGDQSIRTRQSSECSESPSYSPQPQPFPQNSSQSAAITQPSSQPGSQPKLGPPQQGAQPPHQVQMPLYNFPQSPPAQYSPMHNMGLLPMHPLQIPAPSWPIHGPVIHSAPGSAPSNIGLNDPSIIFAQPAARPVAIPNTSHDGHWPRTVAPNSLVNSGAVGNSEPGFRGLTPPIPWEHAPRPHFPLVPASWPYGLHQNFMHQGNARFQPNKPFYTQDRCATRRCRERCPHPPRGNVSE
UniProt O95801: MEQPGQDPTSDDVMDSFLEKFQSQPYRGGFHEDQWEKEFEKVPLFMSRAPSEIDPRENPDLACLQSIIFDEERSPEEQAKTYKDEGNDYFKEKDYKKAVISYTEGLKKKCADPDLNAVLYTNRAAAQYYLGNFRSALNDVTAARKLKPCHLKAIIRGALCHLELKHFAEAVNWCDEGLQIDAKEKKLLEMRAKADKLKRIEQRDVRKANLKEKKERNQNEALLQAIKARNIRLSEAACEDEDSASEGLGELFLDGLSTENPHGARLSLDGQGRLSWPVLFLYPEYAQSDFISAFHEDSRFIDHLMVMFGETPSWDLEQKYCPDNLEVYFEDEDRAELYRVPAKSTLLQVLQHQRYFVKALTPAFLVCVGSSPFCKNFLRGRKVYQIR
UniProt P07437, whole entry, looked up: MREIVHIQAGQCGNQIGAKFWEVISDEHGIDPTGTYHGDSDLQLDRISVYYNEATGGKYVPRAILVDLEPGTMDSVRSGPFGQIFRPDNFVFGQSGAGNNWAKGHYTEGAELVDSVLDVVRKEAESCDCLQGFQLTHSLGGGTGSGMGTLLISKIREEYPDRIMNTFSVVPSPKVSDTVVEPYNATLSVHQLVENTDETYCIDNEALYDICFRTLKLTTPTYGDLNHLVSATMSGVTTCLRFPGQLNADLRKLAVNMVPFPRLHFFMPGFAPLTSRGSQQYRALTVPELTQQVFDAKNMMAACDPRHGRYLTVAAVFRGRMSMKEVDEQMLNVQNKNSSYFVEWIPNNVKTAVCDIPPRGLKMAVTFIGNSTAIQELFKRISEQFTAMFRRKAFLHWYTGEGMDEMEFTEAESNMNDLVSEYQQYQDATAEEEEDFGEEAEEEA
UniProt P0CG48, whole entry, looked up: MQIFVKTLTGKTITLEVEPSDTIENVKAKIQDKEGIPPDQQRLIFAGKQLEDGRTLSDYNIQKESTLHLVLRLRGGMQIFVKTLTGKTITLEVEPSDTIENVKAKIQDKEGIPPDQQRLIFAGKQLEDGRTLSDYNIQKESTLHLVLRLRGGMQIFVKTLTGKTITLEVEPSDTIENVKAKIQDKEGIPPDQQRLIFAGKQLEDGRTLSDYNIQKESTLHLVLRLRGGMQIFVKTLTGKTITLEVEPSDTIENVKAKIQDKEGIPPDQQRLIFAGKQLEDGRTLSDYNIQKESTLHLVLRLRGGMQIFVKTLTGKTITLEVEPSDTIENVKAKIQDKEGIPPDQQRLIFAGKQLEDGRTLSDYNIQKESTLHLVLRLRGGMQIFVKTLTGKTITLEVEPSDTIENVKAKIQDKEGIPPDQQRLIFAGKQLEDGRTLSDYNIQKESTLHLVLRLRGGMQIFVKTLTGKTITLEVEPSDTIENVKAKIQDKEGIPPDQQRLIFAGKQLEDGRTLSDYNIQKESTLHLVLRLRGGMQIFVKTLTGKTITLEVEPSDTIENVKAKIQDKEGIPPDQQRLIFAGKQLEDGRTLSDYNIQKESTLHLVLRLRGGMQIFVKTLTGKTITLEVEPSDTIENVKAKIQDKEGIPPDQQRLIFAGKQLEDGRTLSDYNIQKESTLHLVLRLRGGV
UniProt Q16881, whole entry, looked up: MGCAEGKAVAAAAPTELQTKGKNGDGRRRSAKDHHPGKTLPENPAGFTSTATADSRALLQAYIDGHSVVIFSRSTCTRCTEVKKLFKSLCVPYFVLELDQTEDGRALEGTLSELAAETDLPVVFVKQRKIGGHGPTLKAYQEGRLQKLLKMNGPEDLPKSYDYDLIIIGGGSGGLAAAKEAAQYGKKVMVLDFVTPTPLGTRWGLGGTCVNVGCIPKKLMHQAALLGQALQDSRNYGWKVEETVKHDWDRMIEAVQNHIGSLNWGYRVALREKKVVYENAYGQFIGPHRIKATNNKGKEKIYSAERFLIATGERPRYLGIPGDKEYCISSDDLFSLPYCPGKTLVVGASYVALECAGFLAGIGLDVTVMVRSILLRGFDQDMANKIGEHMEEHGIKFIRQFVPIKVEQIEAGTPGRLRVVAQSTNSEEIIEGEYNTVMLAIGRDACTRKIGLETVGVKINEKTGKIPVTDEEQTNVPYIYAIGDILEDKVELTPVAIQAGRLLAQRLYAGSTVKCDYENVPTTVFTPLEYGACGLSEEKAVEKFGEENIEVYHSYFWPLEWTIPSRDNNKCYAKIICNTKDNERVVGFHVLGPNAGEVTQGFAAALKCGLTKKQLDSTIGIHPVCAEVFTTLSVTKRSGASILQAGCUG

Here are results for eight targets from the supplement of paper PMC10849652.

Holding throughout (experiment): log2 fold change, soluble protein after heating vs DMSO (PISA); higher = thermal stabilisation; K562 cells, 10 uM, 30 min; active = over 0.2 and 3.5 SD of the protein, either way, in both replicates (recomputed)
Compound in test [1]: CC1=C(C=C(C=C1)NC(=O)C2=CC(=CC=C2)C(C)(C)C#N)NC3=CC4=C(C=C3)N=CN(C4=O)C
An outline of the steps:
(§1)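 Soluble protein was quantified by TMTpro 16plex LC-MS/MS after channel sums were equalised. It was obtained as the supernatant after 21,000xg for 90 min from pooled aliquots of K562 cells (2×10^6 cells/mL, 10 μM compound, 30 min) heated for 3 min across 48°C-58°C and extracted in PBS with 0.5% NP-40 at 4°C. Thermal stability values are relative to control samples and come from duplicates. They are given as log2 fold changes.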

Compound in test [2]: CC1=C(C=C(C=C1)NC(=O)C2=CC(=CC=C2)N(C)C)NC(=O)C3=CC=C(C=C3)O
An outline of the steps:
as §1

Compound in test [3]: CC1=CC=C(C=C1)SC2=C3C=C(SC3=CN=C2)C(=O)N
The method, boiled down:
as §1

Compound in test [4]: CC1=NC(=CC=C1)C2=C(N=C(N2)C(C)(C)C)C3=CC4=NC=CN=C4C=C3
The method, boiled down:
as §1

Compound in another test: CCCCN(Cc1ccc(C(=O)NO)cc1)C(=O)Nc1ccccc1 [Nexturastat A]
The method, boiled down: as §1

Compound in the next test: CCCS(=O)(=O)Nc1ccc(F)c(C(=O)c2c[nH]c3ncc(-c4ccc(Cl)cc4)cc23)c1F [vemurafenib]
An outline of the steps:
as §1

Compound in test [5]: CCCS(=O)(=O)Nc1ccc(F)c(C(=O)c2c[nH]c3ncc(Cl)cc23)c1F
An outline of the steps: as §1

Compound in test [6]: CCCc1cc(C)[nH]c(=O)c1CNC(=O)c1cc(-c2ccnc(N3CCN(C)CC3)c2)cc2c1cnn2C(C)C
An outline of the steps: as §1

Compound in a further test: CCN(CC)Cc1ccc2cc(COC(=O)Nc3ccc(C(=O)NO)cc3)ccc2c1 [givinostat]
The method, boiled down:
as §1

Compound in a further test: CCN(CCCOc1ccc2c(Nc3cc(CC(=O)Nc4cccc(F)c4)[nH]n3)ncnc2c1)CCOP(=O)(O)O [barasertib]
An outline of the steps: as §1

Compound in test [7]: CC[C@@H]1C(=O)N(C)c2cnc(Nc3ccc(C(=O)NC4CCN(C)CC4)cc3OC)nc2N1C1CCCC1
An outline of the steps:
as §1

Compound in another test: CC[C@@H]1C(=O)N(C)c2cnc(Nc3ccc(C(=O)N[C@H]4CC[C@H](N5CCN(CC6CC6)CC5)CC4)cc3OC)nc2N1C(C)C [volasertib]
An outline of the steps: as §1

Compound in test [8]: CC[C@H](C)N1C=C(C2=C(C=C(C=C21)C3=CN=C(C=C3)N4CCNCC4)C(=O)NCC5=C(C=C(NC5=O)C)C)C
An outline of the steps: as §1

Compound in the next test: CC[C@H](C)[C@@H](C(=O)N[C@@H]([C@@H](C)O)C(=O)N[C@@H](CC(C)C)C(=O)[C@]1(CO1)C)NC(=O)[C@H]([C@@H](C)CC)N(C)C(=O)C [epoxomicin]
The method, boiled down:
as §1

Compound in test [9]: CCn1c(C(=O)N(C2CC2)C2CC2)cc2c3c(ncn3C)c(Nc3cc(C)n(C)n3)nc21
The method, boiled down:
as §1

Compound in test [10]: CCn1cc(-c2ccnc3[nH]c(-c4cccc(CN(C)C)c4)cc23)c(-c2ccc(NC(=O)N(C)C)cc2)n1
The method, boiled down:
as §1

Compound in test [11]: CN(C)CC(=O)Nc1ccc2[nH]c(=O)c3ccccc3c2c1
The method, boiled down:
as §1

Compound in another test: CN(CCOC1=CC=C(C=C1)C[C@H]2C(=O)NC(=O)S2)C3=CC=CC=N3 (racemic) [rosiglitazone]
An outline of the steps: as §1

Compound in test [12]: CN1C2=C(C3=C1C(=O)N(N=C3)CC4=CC(=CC=C4)N)SC(=C2)S(=O)C
The method, boiled down:
as §1

Compound in test [13]: CN1CCC(CNc2ccc3ncc(-c4cccc(OC(F)(F)F)c4)n3n2)CC1
An outline of the steps: as §1

Take TTC27 (UniProt Q6P3X3): the log2 fold change in test [1] was inactive: 0.001; in test [2] it was inactive: -0.017; in test [3] it was inactive: 0.05; in test [4], inactive: -0.026; in the test with Nexturastat A, inactive: 0.237; with vemurafenib it was inactive: -0.041. For the same target, the log2 fold change in [5] is inactive: 0.068; in test [6] it was inactive: 0.024; with givinostat it was inactive: 0.042; with barasertib, inactive: 0.069; in [7], inactive: -0.098; with volasertib it was inactive: -0.316. In addition, the log2 fold change is inactive: 0.03 in test [8]; inactive: -0.046 with epoxomicin; inactive: -0.016 in [9]; inactive: 0.054 in test [10]; inactive: 0.086 in test [11]; inactive: -0.014 with rosiglitazone. Further, the log2 fold change in test [12] is inactive: 0.308; in test [13] it was inactive: -0.169.

On to TUT4 (UniProt Q5TAX3), for which the log2 fold change in [1] was inactive: -0.124; in test [2], inactive: -0.106; in test [3], inactive: -0.081; in [4], inactive: -0.121; in the test with Nexturastat A, inactive: 0.449; with vemurafenib it was inactive: -0.129. Besides, the log2 fold change is inactive: -0.008 in test [5]; inactive: -0.124 in test [6]; inactive: 0.069 with givinostat; inactive: 0.027 with barasertib; inactive: -0.064 in [7]; inactive: -0.229 with volasertib. Moreover, the log2 fold change in [8] is inactive: -0.15; with epoxomicin, inactive: -0.219; in test [10], inactive: 0.046; in test [11] it was inactive: 0.018; in [12], active: 0.566; in test [13] it was inactive: -0.235.

As to TTC4 (UniProt O95801), the log2 fold change in test [1] was inactive: 0.051; in test [2], inactive: -0.066; in test [3], inactive: 0.032; in test [4] it was inactive: 0.046; with Nexturastat A it was inactive: 0.052; with vemurafenib it was inactive: 0.059. The log2 fold change in [5] is inactive: 0.106; in [6] it was inactive: 0.013; in the test with givinostat it was inactive: -0.015; with barasertib, inactive: 0.072; in test [7], inactive: -0.173; with volasertib, active: -0.316. Also, the log2 fold change in [8] is inactive: 0.103; with epoxomicin, inactive: 0.054; in test [10], inactive: -0.039; in test [11], inactive: 0.061; in test [12], inactive: -0.02; in test [13], inactive: -0.11.

With TUBB6 (UniProt K7ES63), the log2 fold change was inactive: 0.015 in test [1]; inactive: 0.076 in test [2]; inactive: -0.046 in test [3]; inactive: -0.057 in [4]; inactive: 0.071 in the test with Nexturastat A; inactive: -0.208 with vemurafenib. Besides, the log2 fold change in test [5] was inactive: -0.099; in test [6], inactive: -0.172; with givinostat, inactive: -0.079; with barasertib, inactive: 0.043; in test [7], inactive: 0.085; in the test with volasertib, inactive: 0.13. In addition, the log2 fold change is inactive: -0.164 in [8]; inactive: -0.099 with epoxomicin; inactive: 0.107 in test [9]; inactive: 0.139 in test [11]; inactive: 0.331 with rosiglitazone; inactive: 0.069 in test [12].

Turning to TUBB (UniProt P07437), the log2 fold change is inactive: -0.012 in test [1]; inactive: 0.017 in [2]; inactive: -0.023 in test [3]; inactive: 0.056 in test [4]; inactive: -0.019 with Nexturastat A; inactive: -0.015 with vemurafenib. Besides, the log2 fold change is inactive: -0.067 in test [5]; inactive: 0.003 in test [6]; inactive: 0.003 in the test with givinostat; inactive: -0.021 in the test with barasertib; inactive: -0.025 in test [7]; inactive: 0.151 with volasertib. Also, the log2 fold change is inactive: 0.011 in [8]; inactive: 0.017 with epoxomicin; inactive: 0.005 in test [9]; inactive: 0.016 in test [10]; inactive: -0.003 in test [11]; inactive: 0.022 with rosiglitazone. For the same target, the results for the log2 fold change in test [12] and in test [13] were inactive: -0.062 and inactive: -0.126, respectively.

Regarding UBC (UniProt P0CG48), the log2 fold change is inactive: 0.007 in test [1]; inactive: -0.091 in test [2]; inactive: -0.001 in test [3]; inactive: -0.032 in test [4]; inactive: 0.151 with Nexturastat A; inactive: -0.016 in the test with vemurafenib. For the same target, the log2 fold change in test [5] was inactive: -0.08; in test [6], inactive: -0.017; with givinostat it was inactive: 0.028; with barasertib, inactive: -0.018; in test [7] it was inactive: 0.065; with volasertib, inactive: 0.087. Besides, the log2 fold change is inactive: 0.015 in test [8]; active: 0.401 with epoxomicin; inactive: 0.024 in test [10]; inactive: 0.003 in test [11]; inactive: -0.023 in test [12]; inactive: 0.158 in test [13].

Take TXNRD1 (UniProt Q16881): the log2 fold change in test [1] is inactive: 0.032; in [2] it was inactive: 0.006; in test [3], inactive: 0.021; in test [4], inactive: 0.039; in the test with Nexturastat A it was inactive: -0.051; with vemurafenib, inactive: 0.024. Also, the log2 fold change in [5] is inactive: 0.007; in [6] it was inactive: -0.035; with givinostat it was inactive: 0.011; with barasertib, inactive: 0.024; in test [7], inactive: 0.004; in the test with volasertib, inactive: 0.05. Besides, the log2 fold change in test [8] was inactive: 0.006; with epoxomicin it was inactive: 0.054; in [10], inactive: -0.049; in test [11] it was inactive: -0.003; in test [12] it was inactive: -0.096; in [13] it was inactive: -0.006.

For UBA6, the log2 fold change in test [1] was inactive: 0.086; in test [2], inactive: -0.044; in [3], inactive: 0.032; in [4] it was inactive: 0.02; with Nexturastat A it was inactive: -0.027; with vemurafenib, inactive: 0.057. The log2 fold change in test [5] was inactive: 0.086; in test [6], inactive: 0.036; in the test with givinostat, inactive: 0.015; with barasertib, inactive: 0.07; in [7], inactive: -0.139; with volasertib, inactive: -0.189. For the same target, the log2 fold change in [8] is inactive: 0.057; with epoxomicin it was inactive: 0.029; in test [10], inactive: -0.031; in [11] it was inactive: 0.033; in [12] it was inactive: 0; in test [13], inactive: 0.001.
